Laboratory results from patent publication US5486596A (Ceskoslovenska akademie ved, priority 1989, dated 1996).
Some peptides are written in HELM: one residue between dots, names in brackets for other building blocks, links after the first $.

Assay: general procedure: Boc solid-phase peptide synthesis; Benzhydrylamine resin (0.56 mmol/g); Boc-amino acid active esters (OBt), 3 molar excess; 4-dimethylaminopyridine cata
Settings: whole synthesis

Substance | crude mass (scale 0.33 mmol, TFA) [mg] | isolated mass (scale 0.33 mmol, TFA) [mg] | crude mass (scale 0.48 mmol, TFA) [mg] | isolated mass (scale 0.48 mmol, TFA salt) [mg]
PEPTIDE1{[Mpr].[Tyr(Me)].F.Q.N.C.P.[D-Har].G.[am]}$PEPTIDE1,PEPTIDE1,1:R3-6:R3$$$V2.0 | 47 | 9 | – | –
PEPTIDE1{C.[Tyr(Me)].F.Q.N.C.P.[D-Har].G.[am]}$PEPTIDE1,PEPTIDE1,1:R3-6:R3$$$V2.0 | – | – | 353 | 160
